PubChem BioAssay AID1224828 – NIAID, 2016

- Purpose: 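Knock-downs that increase or decrease LPS-induced p65 nuclear translocation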 (primary screen)
- Cell system: mouse RAW264.7 G9 macrophage reporter cells (GFP-p65, Tnf promoter-mCherry)
- Knock-down reagent: siRNA pool against mouse genes, 100 nM
- Duration: 2 days siRNA transfection, then 40 min LPS before fixation
- Challenge: LPS (Salmonella minnesota R595) at 10 ng/ml
- Measured: 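Imaged p65 nuclear translocation ratio, normalised to the plate median, converted to robust z-scores and averaged across two replicates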
- Direction: p65 translocation robust z-score: higher = more nuclear NF-kappaB p65 after LPS than the plate median; nuclear/cytoplasmic p65 ratio: higher = more nuclear NF-kappaB p65
- Hit rule: 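Called active when z exceeds 3.3 or falls under -1.56 (median of Tlr4 controls), giving activity score of at least 50; no calls for control wells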
- Meaning of the calls: active = hit (p65 shift raised or lowered); inactive = no clear change
This is an unselected part of about 17,000 reagents tested. 762 of them (4.5%) were called active. 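Active calls include both raised and lowered p65 entry, mostly lowered; wells with fewer than 50 cells lack a z-score.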 The raw values are shown without normalisation. Entries without a mark were called inactive. Some reagents were tested in more than one well and are listed for each.

| target | p65 translocation robust z-score | nuclear/cytoplasmic p65 ratio, rep 1 | nuclear/cytoplasmic p65 ratio, rep 2 | low cell count flag |
| --- | --- | --- | --- | --- |
| Shprh (GeneID 268281) | 1.13 | 1.27 | 1.39 | enough cells to score |
| Tnnt3 (GeneID 21957) | – | 0 | 1.04 | fewer than 50 cells per well; well left out of scoring |
| Eif2s3x (GeneID 26905) | – | 1.18 | 1.06 | fewer than 50 cells per well; well left out of scoring |
| Rcor1 (GeneID 217864) | -0.34 | 1.5 | 1.75 | enough cells to score |
| Rhbdl2 (GeneID 230726) | 0.89 | 1.53 | 1.69 | enough cells to score |
| Cmpk2 (GeneID 22169) | 0.4 | 1.4 | 1.31 | enough cells to score |
| Mtfp1 (GeneID 67900) | 0.83 | 1.45 | 1.58 | enough cells to score |
| Arhgef19 (GeneID 213649) | 2.18 | 1.72 | 1.66 | enough cells to score |
| Lsm7 (GeneID 66094) | -1.27 | 1.61 | 1.28 | enough cells to score |
| Taar6 (GeneID 215855) | 0.82 | 1.6 | 1.72 | enough cells to score |
| Ankrd49 (GeneID 56503) | -0.76 | 1.4 | 1.43 | enough cells to score |
| Ppp1r7 (GeneID 66385) | -0.35 | 1.4 | 1.41 | enough cells to score |
| Or5b94 (GeneID 258692) | – | 1.47 | 1.27 | fewer than 50 cells per well; well left out of scoring |
| Smarca5 (GeneID 93762) | 1.53 | 1.66 | 1.88 | enough cells to score |
| Thap7 (GeneID 69009) | 1.04 | 1.51 | 1.29 | enough cells to score |
| Ptger4 (GeneID 19219) | -0.52 | 1.4 | 1.54 | enough cells to score |
| Rnf34 (GeneID 80751) | -0.88 | 1.24 | 1.17 | enough cells to score |
| B230206H07Rik (GeneID 320871) | 0.86 | 1.6 | 1.76 | enough cells to score |
| Nuak1 (GeneID 77976) | -1.32 | 1.42 | 1.26 | enough cells to score |
| Cenpp (GeneID 66336) | – | 1.3 | 1.56 | fewer than 50 cells per well; well left out of scoring |
| Mrgprb5 (GeneID 404239) | 1.07 | 1.83 | 1.86 | enough cells to score |
| Krtap19-3 (GeneID 77918) | 0.93 | 1.55 | 1.67 | enough cells to score |
| Ankrd13b (GeneID 268445) | -0.68 | 1.49 | 1.72 | enough cells to score |
| Lkaaear1 (GeneID 277496) | 1.55 | 1.49 | 1.49 | enough cells to score |
| Tpd52 (GeneID 21985) | -0.86 | 1.47 | 1.33 | enough cells to score |
| Mark3 (GeneID 17169) | -1.45 | 1.29 | 1.19 | enough cells to score |
| Ptprb (GeneID 19263) | 0.32 | 1.46 | 1.52 | enough cells to score |
| Or9m1 (GeneID 258641) | -2.32 (active) | 1.37 | 1.17 | enough cells to score |
| Usp17lb (GeneID 381944) | 1.26 | 1.51 | 1.64 | enough cells to score |
| Ndufb7 (GeneID 66916) | -1.32 | 1.61 | 1.36 | enough cells to score |
| Rpl11 (GeneID 67025) | -1.72 (active) | 1.25 | 1.3 | enough cells to score |
| Tas1r2 (GeneID 83770) | 0.63 | 1.6 | 1.68 | enough cells to score |
| Borcs7 (GeneID 66439) | -0.92 | 1.18 | 1.26 | enough cells to score |
| 9230112E08Rik (GeneID 320800) | 0.73 | 1.53 | 1.64 | enough cells to score |
| 9230112E08Rik (GeneID 320800) | -0.25 | 1.42 | 1.48 | enough cells to score |
| Ptgdr (GeneID 19214) | -0.15 | 1.46 | 1.6 | enough cells to score |
| Nsf (GeneID 18195) | -0.36 | 1.27 | 1.47 | enough cells to score |
| Crabp1 (GeneID 12903) | -0.39 | 1.52 | 1.72 | enough cells to score |
| Or7e178 (GeneID 18315) | 0.75 | 1.62 | 1.6 | enough cells to score |
| 2810025M15Rik (GeneID 69953) | 2.08 | 1.68 | 1.73 | enough cells to score |
| C4bp (GeneID 12269) | 1.01 | 1.56 | 1.68 | enough cells to score |
| Or4f6 (GeneID 258441) | 1.97 | 1.9 | 1.43 | enough cells to score |
| Or51f1d (GeneID 258752) | – | 1.31 | 1.22 | fewer than 50 cells per well; well left out of scoring |
| Mid1ip1 (GeneID 68041) | – | 1.36 | 1.31 | fewer than 50 cells per well; well left out of scoring |
| Lyz3 (GeneID 77397) | -1.94 (active) | 1.11 | 1.27 | enough cells to score |
| Ccdc34 (GeneID 68201) | 0.28 | 1.47 | 1.46 | enough cells to score |
| Tor3a (GeneID 30935) | 1.96 | 1.23 | 1.4 | enough cells to score |
| Otop1 (GeneID 21906) | 0.06 | 1.41 | 1.28 | enough cells to score |
| Phf23 (GeneID 78246) | 2.04 | 1.6 | 1.81 | enough cells to score |
| Dennd4b (GeneID 229541) | -0.76 | 1.46 | 1.3 | enough cells to score |
| Olfr257 (GeneID 404314) | – | 1.31 | 1.21 | fewer than 50 cells per well; well left out of scoring |
| Drc4 (GeneID 104346) | 0.25 | 1.43 | 1.44 | enough cells to score |
| Or4d10b (GeneID 258676) | -0.15 | 1.6 | 1.4 | enough cells to score |
| Cdnf (GeneID 227526) | 0.61 | 1.46 | 1.69 | enough cells to score |
| Rarg (GeneID 19411) | 0.33 | 1.58 | 1.53 | enough cells to score |
| Ogfr (GeneID 72075) | 1.13 | 1.68 | 1.48 | enough cells to score |
| Epm2aip1 (GeneID 77781) | 0.65 | 1.63 | 1.61 | enough cells to score |
| Lypd4 (GeneID 232973) | -1.76 (active) | 1.1 | 1.05 | enough cells to score |
| Rad9a (GeneID 19367) | 1.53 | 1.84 | 1.63 | enough cells to score |

3 entries already listed, sorted by “nuclear/cytoplasmic p65 ratio, rep 1”, low to high.
| target | p65 translocation robust z-score | nuclear/cytoplasmic p65 ratio, rep 1 | nuclear/cytoplasmic p65 ratio, rep 2 | low cell count flag |
| --- | --- | --- | --- | --- |
| Drc4 (GeneID 104346) | 0.25 | 1.43 | 1.44 | enough cells to score |
| Cdnf (GeneID 227526) | 0.61 | 1.46 | 1.69 | enough cells to score |
| Or4d10b (GeneID 258676) | -0.15 | 1.6 | 1.4 | enough cells to score |
